The whole screen tested about 300,000 compounds, of which about 5,400 (1.8%) were called active. This list was built around the results that the source calls inconclusive (neither active nor inactive); the mix of calls is not that of the screen. Calls come from the whole dose curve; tested in HEK293 cells. Potencies beside an inconclusive call are fits to weak or partial responses and may not hold up.
Experiment: qHTS for inhibitors of binding or entry into cells for Marburg Virus
Details: Marburg virus pseudotyped entry inhibition, cell reporter; activity change, negative = inhibition: at 37.8 µM (top of the series) unless noted
% is set by controls: 0 for no effect and ±100 for the full control effect; potency is the fitted concentration of half-maximal effect.

Compound	Potency	activity change, negative = inhibition
O=C(COC(=O)c1nc(Cl)ccc1Cl)Nc1ncc(Cl)cc1Cl	inactive	
Cc1ccc(NC(=O)CSc2nnc(C3CC3)n2CC2CCCO2)c(C)c1 (stereo not drawn)	inactive	
CCOc1cccc(-c2c(C(=O)N/N=C/c3ccncc3)nnn2-c2nonc2N)c1	inconclusive: 5.62 µM [activator, single point]	
O=C(COc1ccc2ccccc2c1Br)NCc1ccccn1	inconclusive: 0.891 µM [activator, full curve, poor fit]	
Cc1cccn2c(CNC3CCCc4ccccc43)c(C(=O)N3CCCCC3)nc12 (stereo not drawn)	active: 10 µM	
COc1ccc(CCC(C)NCC2CCCCC2)cc1 (stereo not drawn)	inconclusive: 22.4 µM [inhibitor, single point]	
Cc1ccc(/C=C/C(=O)NC2=NCCS2)cc1	active: 3.16 µM	
Cc1cccc2sc(NC(=O)c3ccc(NS(=O)(=O)c4cccs4)cc3)nc12	inconclusive: 6.31 µM [activator, single point]	
Cc1cccc(-c2[nH]c(C(C)(C)C)nc2-c2ccc3nccnc3c2)n1	inconclusive: 0.0146 µM [inhibitor, full curve, poor fit]	
COc1cccc(OCCc2c(C)n[nH]c2C)c1	inactive	
Cc1cc(C)nc(N(C#N)CN2C(=O)c3ccccc3S2(=O)=O)n1	inactive	
CC(=O)N/C(=C\c1ccccc1)C(=O)N1CCOCC1		inconclusive: 11.2% [activator] [at 46.1 µM]
CCCCC(CC)Cn1c(Oc2ccccc2)nc2c1c(=O)n(C)c(=O)n2C (stereo not drawn)	inactive	
CC(C)c1ccccc1OCCCCCN1CCOCC1	inconclusive: 35.5 µM [inhibitor, single point]	
Cc1onc(-c2ccccc2Cl)c1C(=O)NCc1nc(-c2ccc(C(F)(F)F)cc2)no1	inconclusive: 10 µM [inhibitor, partial curve, poor fit]	
CCOC(=O)C(NC(=O)c1ccccc1)(N1CCOCC1)C(F)(F)F (stereo not drawn)	inconclusive: 3.16 µM [activator, single point]	
O[C@@H]1CN(CC2CCCCC2)[C@@H](c2ccccc2)C[C@@H]1n1cc(C2CC2)nn1	inconclusive: 0.001 µM [inhibitor, full curve, poor fit]	
CCOc1ccccc1NC(=O)Cc1cccs1	inconclusive: 1.58 µM [inhibitor, partial curve, poor fit]	
COC(=O)/C(C#N)=C/c1c(N2CCN(c3ccc(OC)cc3)CC2)nc2c(C)cccn2c1=O	inconclusive: 1.26 µM [inhibitor, full curve]	
CCOc1ccc(-n2c(=O)c3sc4ccccc4c3n(Cc3ccc(F)cc3)c2=O)cc1	inactive	
Cc1nc(-c2ccc(NC(=O)c3ccc(Br)o3)cc2)cs1	inconclusive: 11.2 µM [inhibitor, partial curve, poor fit]	
Cc1oc2cc(Br)c(O)c(Br)c2c1-c1ccccc1	inconclusive: 0.794 µM [activator, partial curve, poor fit]	
C/C=C/c1ccc(OCCCn2cncn2)c(OC)c1	inconclusive: 12.6 µM [activator, single point]	

Compound	Potency	activity change, negative = inhibition
COCCCNC(=O)Cn1c(=O)n(-c2ccc(Cl)cc2)c(=O)c2c3c(sc21)CCCCC3	inactive	
CC(=O)c1cccc(NC(=O)c2ccc3c(Cl)c4c(nc3c2)CCCC4)c1	inconclusive: 1.41 µM [activator, full curve]	
Cc1ccc(NC(=O)CCNS(=O)(=O)c2ccc(OC(F)(F)F)cc2)c(O)c1	inconclusive: 6.31 µM [inhibitor, single point]	
CCOC(=O)/C(C#N)=C(/C)c1ccc(OC)cc1	inactive	
CCN(CC)S(=O)(=O)c1ccc(N2CCN(C)CC2)c(NC(=O)CSCC(=O)Nc2cccc(C)c2)c1	inconclusive: 8.91 µM [inhibitor, partial curve, poor fit]	
Cc1nn2c(=O)c(NC(=O)c3ccc(F)cc3)cnc2s1	inactive	
C[C@H]1[C@@H](c2ccccc2)Oc2c(Cl)cccc2S(=O)(=O)N1Cc1cccc(Cl)c1	inconclusive: 3.15 µM [inhibitor, full curve, poor fit]	
C/C(=N\NC(=O)C(=O)Nc1cccc(Cl)c1C)c1ccncc1	inconclusive: 3.55 µM [inhibitor, partial curve, poor fit]	
Cc1cccc(NC(=O)N2CCN(Cc3ccc(Cl)cc3)CC2)c1	inconclusive: 35.5 µM [inhibitor, single point]	
COc1ccc(/C=C2\CCC(C3CCCC3)C2=O)cc1Cn1cccn1 (stereo not drawn)	inconclusive: 35.5 µM [inhibitor, single point]	
CS(=O)(=O)NCc1ccc(C(=O)NCCOc2ccccc2)cc1	inconclusive: 3.26 µM [activator, single point]	
C/C=N/NC(=O)c1cc(Br)ccc1O	inconclusive: 35.5 µM [activator, single point]	
COc1cc(-c2nnc(SCC(=O)Nc3cccc(C#N)c3)o2)cc(OC)c1OC	inconclusive: 20 µM [inhibitor, partial curve, poor fit]	
C=CCNC(=O)c1ccccc1NC(=O)C1CC(=O)N(C(C)C)C1 (stereo not drawn)	inconclusive: 1 µM [inhibitor, single point]	
CCOC(=O)Nc1ccc(Cc2ccncc2)cc1	inactive	
CCN(CC)CCCn1c2c(c(SCC(=O)N3CCc4ccccc43)nc1=O)CCC2	inconclusive: 35.5 µM [inhibitor, single point]	
O=C(Nc1cccc(-c2cscn2)c1)C1CCN(Cc2ccsc2)CC1	inconclusive: 35.5 µM [inhibitor, single point]	
O=C(CN1C(=O)NC2(CCCC2)C1=O)N1CCN(Cc2ccccc2)CC1	inactive	
COc1ccc(C2=NCCc3cc(OC)c(OC)cc32)cc1	inconclusive: 35.5 µM [inhibitor, single point]	
COC(=O)c1c(NC(=O)CSc2nnnn2-c2ccccc2)sc2c1CCC(C(C)(C)C)C2 (stereo not drawn)	inconclusive: 35.5 µM [inhibitor, single point]	
C(=N/N1CCN(c2ccccc2)CC1)/c1ccncc1	inactive	
COc1ccc(-n2nnnc2SCC(=O)Nc2nc3c(s2)CCCC3)cc1	inconclusive: 4.11 µM [inhibitor, full curve, poor fit]	
CCC(Sc1ncc(S(=O)(=O)c2ccc(Cl)cc2)c(=O)[nH]1)C(=O)Nc1ccc(OC)cc1 (stereo not drawn)	inactive	

Compound	Potency	activity change, negative = inhibition
O=C(NCc1ccncc1)C(=O)NCC1OCCN1S(=O)(=O)c1ccc(Br)cc1 (stereo not drawn)	inactive	
Cc1cc(C)nc(NC(=O)CCN2C(=O)c3ccccc3S2(=O)=O)n1	inconclusive: 3.98 µM [inhibitor, partial curve, poor fit]	
CCn1c(NCc2cc(Br)ccc2NS(=O)(=O)c2ccc(C)cc2)nc2ccccc21	inconclusive: 25.1 µM [inhibitor, single point]	
Cc1ccccc1/C=C/C1=NCCN1	active: 11.2 µM	
Cc1ccc(NC(=O)/C(=C\c2ccccc2)NC(=O)c2ccco2)cc1	inconclusive: 5.62 µM [inhibitor, single point]	
CC(=NNc1nc2ccccc2s1)c1ncccn1	inconclusive: 0.141 µM [inhibitor, full curve, poor fit]	
O=C(Cc1ccc(NS(=O)(=O)c2ccc(F)cc2)cc1)NCc1cccnc1	inconclusive: 3.16 µM [inhibitor, partial curve, poor fit]	
Nc1ncnc2c1ncn2CCc1ccccc1	inconclusive: 6.31 µM [activator, single point]	
O=[N+]([O-])c1ccc(CC(Cl)c2ccccn2)cc1 (stereo not drawn)	inconclusive: 6.31 µM [activator, single point]	
Cc1cccc(OCC(=O)NCCCNC(=O)c2ccccn2)c1	inconclusive: 5.62 µM [inhibitor, single point]	
O=S(=O)(Nc1ccc(N2CCOCC2)cc1)c1c(F)cc(F)cc1Br	inactive	
O=C(CN1C(=O)c2cccc3cccc1c23)Nc1cccc(F)c1	inconclusive: 8.91 µM [inhibitor, partial curve, poor fit]	
COc1cccc(CNC(=O)CSc2nc(=O)n(Cc3ccncc3)c3c2CCC3)c1	inactive	
CCC(=O)N1N=C2C3CCN(CC3)C2C1c1ccc(C)cc1 (stereo not drawn)	inactive	
C=CCc1ccccc1OCC(=O)N/N=C/c1ccc(OC(C)=O)cc1OC(C)=O	inconclusive: 10 µM [inhibitor, partial curve, poor fit]	
CCc1cccc(NC(=O)c2cc3c(s2)-c2ccccc2OC3)c1	inconclusive: 31.6 µM [activator, single point]	
N#CC1(c2ccccc2)CCN(S(=O)(=O)c2ccc(OC(F)(F)F)cc2)CC1	inconclusive: 1.12 µM [inhibitor, full curve, poor fit]	
COc1ccc(C(=O)N/N=C/C(=O)c2ccccc2)cc1	inconclusive: 5.62 µM [activator, single point]	
COC(=O)c1sc2nc(N)c(C#N)cc2c1N	inactive	
CCN(CC)CCOC(=O)c1ccc(N/C=C(/C#N)c2nc(-c3cccc(OC)c3)cs2)cc1	inconclusive: 3.16 µM [inhibitor, partial curve, poor fit]	
Cc1ncc([N+](=O)[O-])n1CCOC(=O)NC(NCc1ccccc1Cl)C(Cl)(Cl)Cl (stereo not drawn)	inconclusive: 20 µM [inhibitor, single point]	
CN1CCN(S(=O)(=O)c2cccc(C(=O)Nc3sc4c(c3C(N)=O)CCCC4)c2)CC1	inconclusive: 8.91 µM [inhibitor, partial curve]	
